Cleaved PARP in drug-treated melanoma cells

Values as published with doi:10.1371/journal.pone.0140310, rounded.

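The test systems are human melanoma cell lines, treated with a pair of drugs for 72 h and then stained and imaged. Values are the share of nuclei positive for cleaved PARP as a percentage of the same share in the DMSO control: 100 is the control level, higher means more apoptosis. Every drug was used at one fixed concentration, the higher of two screened. These are primary screening values without error estimates. Basal and induced levels differ widely between cell lines.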 Only some of the drugs and lines screened are listed, without regard to their results. An entry leaves out what has no value listed here.

Drug key:
dasatinib, 0.02 µM: Cc1nc(Nc2ncc(C(=O)Nc3c(C)cccc3Cl)s2)cc(N2CCN(CCO)CC2)n1
lapatinib, 4 µM: CS(=O)(=O)CCNCc1ccc(-c2ccc3ncnc(Nc4ccc(OCc5cccc(F)c5)c(Cl)c4)c3c2)o1
GW9662, 10 µM: O=C(Nc1ccccc1)c1cc([N+](=O)[O-])ccc1Cl
FH535, 5 µM: Cc1cc([N+](=O)[O-])ccc1NS(=O)(=O)c1cc(Cl)ccc1Cl
AS-252424, 5 µM: O=C1NC(=O)/C(=C/c2ccc(-c3ccc(F)cc3O)o2)S1
vatalanib, 10 µM: Clc1ccc(Nc2nnc(Cc3ccncc3)c3ccccc23)cc1
tamatinib, 2 µM: COc1cc(Nc2ncc(F)c(Nc3ccc4c(n3)NC(=O)C(C)(C)O4)n2)cc(OC)c1OC
decitabine, 0.5 µM: Nc1ncn([C@H]2C[C@H](O)[C@@H](CO)O2)c(=O)n1

GW9662 and AS-252424 gave COLO 800: 713; A375: 18.2; IPC-298: 42.5; UACC-62: 401; LB2518-MEL: 64.6.
AS-252424 and lapatinib gave COLO 800: 161; A375: 49.7; IPC-298: 58.5; UACC-62: 236; LB2518-MEL: 133.
dasatinib and decitabine gave COLO 800: 73.9; A375: 196; IPC-298: 177; UACC-62: 327; LB2518-MEL: 76.5.
dasatinib and AS-252424 gave COLO 800: 50.6; A375: 154; IPC-298: 53.1; UACC-62: 196; LB2518-MEL: 37.7.
vatalanib and GW9662 gave COLO 800: 51.6; A375: 137; IPC-298: 239; UACC-62: 367; LB2518-MEL: 175.
tamatinib and GW9662 gave COLO 800: 206; A375: 62.4; IPC-298: 109; UACC-62: 105; LB2518-MEL: 234.
GW9662 and dasatinib gave COLO 800: 24.3; A375: 123; IPC-298: 98.1; UACC-62: 407; LB2518-MEL: 78.9.
dasatinib and lapatinib gave COLO 800: 152; A375: 111; IPC-298: 115; UACC-62: 345; LB2518-MEL: 163.
lapatinib and decitabine gave COLO 800: 73.4; A375: 68.4; IPC-298: 147; UACC-62: 225; LB2518-MEL: 92.4.
tamatinib and vatalanib gave COLO 800: 532; IPC-298: 105; UACC-62: 284.
vatalanib and decitabine gave COLO 800: 188; A375: 95.1; IPC-298: 492; UACC-62: 305; LB2518-MEL: 114.
GW9662 and decitabine gave COLO 800: 221; A375: 48.1; IPC-298: 67.3; UACC-62: 280; LB2518-MEL: 53.7.
tamatinib and AS-252424 gave COLO 800: 159; A375: 33.2; IPC-298: 148; UACC-62: 150; LB2518-MEL: 92.3.
lapatinib and tamatinib gave COLO 800: 487; IPC-298: 89.0; UACC-62: 334.
GW9662 and lapatinib gave COLO 800: 149; A375: 49.9; IPC-298: 147; UACC-62: 463; LB2518-MEL: 61.7.
dasatinib and FH535 gave COLO 800: 71.1; A375: 313; IPC-298: 100; UACC-62: 174; LB2518-MEL: 265.
dasatinib and vatalanib gave COLO 800: 210; A375: 153; IPC-298: 233; UACC-62: 386; LB2518-MEL: 214.
decitabine and FH535 gave COLO 800: 71.0; A375: 360; IPC-298: 93.2; UACC-62: 200; LB2518-MEL: 144.
FH535 and GW9662 gave COLO 800: 93.0; A375: 66.0; IPC-298: 408; UACC-62: 20.5.
FH535 and tamatinib gave COLO 800: 141; A375: 86.9; IPC-298: 237; UACC-62: 397; LB2518-MEL: 117.
vatalanib and FH535 gave COLO 800: 141; A375: 293; IPC-298: 45.2; UACC-62: 99.8; LB2518-MEL: 40.7.
AS-252424 and FH535 gave COLO 800: 93.7; A375: 137; IPC-298: 57.2; UACC-62: 109.

Repeated from the top, 2 entries:

| Combination | COLO 800 | A375 | IPC-298 | UACC-62 | LB2518-MEL |
|---|---|---|---|---|---|
| GW9662 and AS-252424 | 713 | 18.2 | 42.5 | 401 | 64.6 |
| AS-252424 and lapatinib | 161 | 49.7 | 58.5 | 236 | 133 |